Patent US20100015050A1, “PEG AND TARGETING LIGANDS ON NANOPARTICLE SURFACE” (WAYNE STATE UNIVERSITY, priority 2006, published 2010)
For at least one compound, name, drawing or mass did not settle the structure.

Test system: vascular smooth muscle cells
Experiment: intracellular drug accumulation with 3H-dexamethasone
Format: cell-based
Settings: nanoparticles 600 μg/ml or solution 25 μg/ml

C[C@@H]1C[C@H]2[C@@H]3CCC4=CC(=O)C=C[C@]4(C)[C@@]3(F)[C@@H](O)C[C@]2(C)[C@@]1(O)C(=O)CO [dexamethasone]
cellular drug levels: transient drug levels
